Source: paper PMC10550995

Sequences of proteins named here, by UniProt entry; tags and fusion partners are left off. Residues count along the entry.
UniProt P38646, residues 47-679: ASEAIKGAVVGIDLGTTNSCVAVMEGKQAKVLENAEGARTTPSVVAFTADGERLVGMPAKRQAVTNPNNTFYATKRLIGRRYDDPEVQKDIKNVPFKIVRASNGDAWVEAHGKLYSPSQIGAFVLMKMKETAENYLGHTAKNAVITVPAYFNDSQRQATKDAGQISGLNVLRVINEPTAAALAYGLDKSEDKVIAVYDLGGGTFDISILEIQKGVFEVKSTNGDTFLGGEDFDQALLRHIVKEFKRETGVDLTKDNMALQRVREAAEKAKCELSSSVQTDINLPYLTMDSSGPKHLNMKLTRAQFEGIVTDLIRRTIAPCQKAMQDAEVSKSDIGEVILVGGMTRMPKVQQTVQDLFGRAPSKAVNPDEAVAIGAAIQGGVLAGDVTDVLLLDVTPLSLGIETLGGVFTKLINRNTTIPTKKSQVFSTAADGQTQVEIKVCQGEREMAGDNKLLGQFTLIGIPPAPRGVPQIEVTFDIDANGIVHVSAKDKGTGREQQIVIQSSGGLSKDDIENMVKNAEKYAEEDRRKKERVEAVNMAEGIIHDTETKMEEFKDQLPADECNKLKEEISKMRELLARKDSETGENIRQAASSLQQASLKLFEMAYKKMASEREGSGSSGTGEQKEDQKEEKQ
UniProt P27824, residues 21-592: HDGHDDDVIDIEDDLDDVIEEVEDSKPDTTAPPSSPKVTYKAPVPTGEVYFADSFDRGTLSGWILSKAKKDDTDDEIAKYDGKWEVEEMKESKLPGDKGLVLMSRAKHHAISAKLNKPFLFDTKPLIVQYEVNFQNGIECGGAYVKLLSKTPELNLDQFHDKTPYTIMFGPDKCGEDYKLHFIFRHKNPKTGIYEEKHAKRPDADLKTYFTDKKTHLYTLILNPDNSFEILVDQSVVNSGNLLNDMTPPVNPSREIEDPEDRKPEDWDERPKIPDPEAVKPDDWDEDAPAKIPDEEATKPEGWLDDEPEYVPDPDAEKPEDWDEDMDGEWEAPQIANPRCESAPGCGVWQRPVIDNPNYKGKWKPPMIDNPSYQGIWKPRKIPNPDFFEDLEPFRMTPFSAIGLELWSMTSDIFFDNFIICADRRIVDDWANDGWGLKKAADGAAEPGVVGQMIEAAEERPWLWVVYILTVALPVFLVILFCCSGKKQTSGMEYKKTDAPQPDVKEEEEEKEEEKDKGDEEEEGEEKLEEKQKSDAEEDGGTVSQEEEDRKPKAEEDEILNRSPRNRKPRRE
UniProt P11021, residues 19-654: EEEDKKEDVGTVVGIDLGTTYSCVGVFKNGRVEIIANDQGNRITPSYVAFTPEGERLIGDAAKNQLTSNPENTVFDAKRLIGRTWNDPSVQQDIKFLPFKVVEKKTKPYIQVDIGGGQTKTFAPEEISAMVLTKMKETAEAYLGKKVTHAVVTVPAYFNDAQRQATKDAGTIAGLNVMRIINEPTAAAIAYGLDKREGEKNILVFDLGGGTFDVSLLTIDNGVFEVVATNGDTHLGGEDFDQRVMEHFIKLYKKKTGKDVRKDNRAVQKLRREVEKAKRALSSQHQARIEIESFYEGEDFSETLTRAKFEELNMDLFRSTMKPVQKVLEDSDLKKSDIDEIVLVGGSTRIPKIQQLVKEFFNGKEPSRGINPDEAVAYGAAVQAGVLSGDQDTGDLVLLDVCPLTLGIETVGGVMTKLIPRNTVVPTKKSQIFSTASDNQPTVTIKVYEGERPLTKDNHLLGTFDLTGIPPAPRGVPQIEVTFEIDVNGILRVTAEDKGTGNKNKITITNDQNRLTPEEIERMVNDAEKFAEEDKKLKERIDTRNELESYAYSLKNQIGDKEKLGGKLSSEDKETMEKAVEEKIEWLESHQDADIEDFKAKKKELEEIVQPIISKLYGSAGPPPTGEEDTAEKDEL

Target: T1, ENDOG (bait of the ENDOG IP-Mass data) (UniProt Q14249)
T1 sequence: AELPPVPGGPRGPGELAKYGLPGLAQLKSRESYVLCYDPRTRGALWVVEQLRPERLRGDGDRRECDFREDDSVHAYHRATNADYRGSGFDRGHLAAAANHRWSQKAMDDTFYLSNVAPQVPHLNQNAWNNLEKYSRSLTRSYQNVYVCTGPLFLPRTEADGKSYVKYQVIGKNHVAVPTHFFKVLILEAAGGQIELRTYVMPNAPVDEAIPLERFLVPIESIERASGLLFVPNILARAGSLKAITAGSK
Test: affinity purification with mass spectrometry; reanalysis of the authors' ENDOG IP-Mass data of ref. 23

binding, binds:
Grp75 (hit of the ENDOG IP-Mass data) (from UniProt P38646 47-679), Calnexin (hit of the ENDOG IP-Mass data) (from UniProt P27824 21-592), Bip (hit of the ENDOG IP-Mass data) (from UniProt P11021 19-654)

No constants are given. Whether binding was seen depends on the method and setting. Binding seen in cells or lysates may run through a third protein. Here binding means that the protein was enriched with, or labelled near, the bait; the list need not be complete.
